Data reported in the supplement of paper PMC9744312.
Counter-ions that a name gives are not always drawn. The list shows a part of the results. This is a noisy data set.

These molecules were tested on Peyronie's disease tunica albuginea primary fibroblasts (assay: cell viability (DRAQ5 nuclear stain) relative to TGF-beta1-only control; higher = more viable cells). Details: 10 µM; TGF-beta1 10 ng/mL; 72 h.

Row | Compound | cell viability
1 | C[C@@H]1O[C@@H](O[C@H]2C[C@@H](O)[C@]3(CO)[C@H]4[C@H](O)C[C@]5(C)[C@@H](C6=CC(=O)OC6)CC[C@]5(O)[C@@H]4CC[C@]3(O)C2)[C@H](O)[C@H](O)[C@H]1O [Ouabain] | 39.4%
2 | NCC(O)c1ccc(O)cc1 (racemic) [(+,-)-Octopamine HCl] | 94.9%
3 | C[N+]1(C)[C@@H]2C[C@@H](OC(=O)[C@H](CO)c3ccccc3)C[C@H]1[C@@H]1O[C@@H]12 [Methscopolamine] | 95%
4 | CCC1(c2ccc(N)cc2)CCC(=O)NC1=O (centres undefined) [Aminoglutethimide] | 95%
5 | CCN(C)C(=O)Oc1cccc([C@H](C)N(C)C)c1 [Rivastigmine Tartrate] | 93%
6 | CCN(C)C(=O)Oc1cccc([C@H](C)N(C)C)c1 [Rivastigmine] | 64.7%
7 | OC(c1ccccc1)(c1ccccc1)C1CCNCC1 [Azacyclonol] | 91.4%
8 | C[N+]1(C)CCCC(OC(=O)C(O)(c2ccccc2)c2ccccc2)C1 (centres undefined) [Mepenzolate Bromide] | 87.1%
9 | CCC1(C)CC(=O)NC(=O)C1 [Bemegride] | 98.9%
10 | COc1ccc(CN(C(=O)[C@@H](N)Cc2c(C)cc(C(N)=O)cc2C)[C@@H](C)c2ncc(-c3ccccc3)[nH]2)cc1C(=O)O [Eluxadoline] | 89.1%
11 | Oc1ccc(Cl)cc1Cc1cc(Cl)ccc1O [Dichlorophene] | 82.1%
12 | C=CN1CCCC1=O.II [Povidone iodine] | 82.2%
13 | Cn1c(COP(=O)(NCCBr)NCCBr)cnc1[N+](=O)[O-] [Evofosfamide (TH-302)] | 78.2%
14 | CC(=O)NC1CCSC1=O (centres undefined) [Citiolone] | 85.6%
15 | O=P1(N(CCCl)CCCl)NCCCO1 (centres undefined) [Cyclophosphamide Monohydrate] | 85.1%
16 | CN1C(=O)CCS(=O)(=O)C1c1ccc(Cl)cc1 (centres undefined) [Chlormezanone] | 95.6%
17 | O.O.O.O=C([O-])C1[O][Sb]2[O]C(=O)C([O]2)C(C(=O)[O-])[O][Sb]2[O]C(=O)C1[O]2.[K+].[K+] (centres undefined) [Antimonyl potassium tartrate trihydrate] | 98.1%
18 | CCCCCCCCCCCCCCCC[n+]1ccccc1 [Cetylpyridinium Chloride] | 45.9%
19 | CNC(C)Cc1ccccc1OC (centres undefined) [Methoxyphenamine Hydrochloride] | 90.2%
20 | C=C1C[C@@H]2[C@H](CC[C@]3(C)C(=O)CC[C@@H]23)[C@@]2(C)C=CC(=O)C=C12 [Exemestane] | 76.8%
21 | CCN(CC)CCOC(=O)C(O)(c1ccccc1)c1ccccc1 [Benactyzine hydrochloride] | 85.8%
22 | CN(C)C(=O)Oc1cccc([N+](C)(C)C)c1 [Neostigmine Bromide] | 92.5%

Reprinted from the results shown (2 entries):
Row | Compound | cell viability
14 | CC(=O)NC1CCSC1=O (centres undefined) [Citiolone] | 85.6%
15 | O=P1(N(CCCl)CCCl)NCCCO1 (centres undefined) [Cyclophosphamide Monohydrate] | 85.1%

(listing goes on)

Row | Compound | cell viability
23 | COc1ccc(C(CN(C)C)C2(O)CCCCC2)cc1 (centres undefined) [Venlafaxine] | 112%
24 | COc1ccc(C(CN(C)C)C2(O)CCCCC2)cc1 (centres undefined) [Venlafaxine HCl] | 73.5%
25 | C[C@]12CCC(=O)C(O)=C1CC[C@@H]1[C@@H]2CC[C@]2(C)C(=O)CC[C@@H]12 [Formestane] | 96.7%
26 | CCCCCCCCC(=O)NCc1ccc(O)c(OC)c1 [Nonivamide] | 85.3%
27 | NCCCNCCSP(=O)(O)O [Amifostine] | 90.3%
28 | CN(C)C(=O)Oc1ccc[n+](C)c1 [Pyridostigmine Bromide] | 95.6%
29 | O=c1[nH]c2ccccc2n1C1CCN(CCCC(c2ccc(F)cc2)c2ccc(F)cc2)CC1 [Pimozide] | 92.2%
30 | CC[N+](C)(CC)CCOC(=O)C(O)(c1ccccc1)c1ccccc1 [Methylbenactyzine Bromide] | 84.7%
31 | C[C@@H]1[C@H](O)[C@@H](C)/C=C/C=C/CC/C=C/C=C/C=C/C=C/[C@H](O[C@H]2O[C@@H](C)[C@H](O)[C@@H](N)[C@H]2O)C[C@@H]2O[C@](O)(C[C@@H](O)[C@H](O)CC[C@@H](O)C[C@@H](O)C[C@@H](O)CC(=O)O[C@H]1C)C[C@H](O)[C@H]2C(=O)O [Nystatin (Fungicidin)] | 99.1%
32 | CC(C)NCC(O)c1ccccc1Cl (centres undefined) [Clorprenaline HCl] | 90.2%
33 | N[C@@H]1C[C@H]1c1ccccc1 [Tranylcypromine (2-PCPA) HCl] | 85.8%
34 | [O-][n+]1ccccc1[S-].[O-][n+]1ccccc1[S-].[Zn+2] [Zinc Pyrithione] | 17.9%
35 | O=[N+]([O-])C(Br)(CO)CO [Bronopol] | 87.5%
36 | CN1[C@@H]2C[C@@H](OC(=O)[C@H](CO)c3ccccc3)C[C@H]1[C@@H]1O[C@@H]12 [Scopolamine HBr] | 87.5%
37 | CC(NC(C)(C)C)C(=O)c1cccc(Cl)c1 (centres undefined) [Amfebutamone (Bupropion) HCl] | 94.7%
38 | NC[C@H](CC(=O)O)c1ccc(Cl)cc1 [(R)-baclofen] | 86.9%
39 | Cn1c(CCCC(=O)O)nc2cc(N(CCCl)CCCl)ccc21 [Bendamustine HCl] | 92%
40 | CN[C@@H]1[C@@H](O)[C@@H](O[C@@H]2[C@@H](O)[C@H](O[C@H]3O[C@H](CN)CC[C@H]3N)[C@@H](N)C[C@H]2N)OC[C@]1(C)O.CN[C@@H]1[C@@H](O)[C@@H](O[C@@H]2[C@@H](O)[C@H](O[C@H]3O[C@H]([C@@H](C)N)CC[C@H]3N)[C@@H](N)C[C@H]2N)OC[C@]1(C)O.CN[C@@H]1[C@@H](O)[C@@H](O[C@@H]2[C@@H](O)[C@H](O[C@H]3O[C@H]([C@@H](C)NC)CC[C@H]3N)[C@@H](N)C[C@H]2N)OC[C@]1(C)O [Gentamicin Sulfate] | 98.8%
41 | CC(=O)O[C@H]1C[C@@H]2CC[C@@H]3[C@H](CC[C@@]4(C)[C@H]3C[C@H]([N+]3(C)CCCCC3)[C@@H]4OC(C)=O)[C@@]2(C)C[C@@H]1[N+]1(C)CCCCC1 [Pancuronium dibromide] | 88.5%
42 | c1ccc2c(c1)Nc1ccccc1S2 [Phenothiazine] | 93.5%
43 | C[C@]12CCC(=O)C=C1C=C[C@@H]1[C@@H]2CC[C@@]2(C)[C@H]1CC[C@@]2(O)CCC(=O)O [Potassium Canrenoate] | 92%
44 | Cc1cccc(C)c1NC(=O)CN1CCCC1=O [Nefiracetam] | 97.8%
